Assay results taken from article PMC4761381.
Results are given in words; binding and its absence hold for the method and conditions named. Binding seen in cells or lysates may run through a third protein. A yes stands for co-enrichment or nearness to the bait. Other partners may have been found.

Chains of the proteins cited; added tags and fusions are not shown. Lines headed by an entry give the natural chain unless they say otherwise; changes in a name come on top. Residues count along the entry.
UniProt Q04760: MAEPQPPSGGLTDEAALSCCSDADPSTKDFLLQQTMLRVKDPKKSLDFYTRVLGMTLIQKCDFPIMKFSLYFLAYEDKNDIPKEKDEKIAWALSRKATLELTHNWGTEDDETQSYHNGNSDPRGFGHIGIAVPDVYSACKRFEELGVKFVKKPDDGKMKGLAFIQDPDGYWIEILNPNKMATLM
UniProt P27824, residues 21-592: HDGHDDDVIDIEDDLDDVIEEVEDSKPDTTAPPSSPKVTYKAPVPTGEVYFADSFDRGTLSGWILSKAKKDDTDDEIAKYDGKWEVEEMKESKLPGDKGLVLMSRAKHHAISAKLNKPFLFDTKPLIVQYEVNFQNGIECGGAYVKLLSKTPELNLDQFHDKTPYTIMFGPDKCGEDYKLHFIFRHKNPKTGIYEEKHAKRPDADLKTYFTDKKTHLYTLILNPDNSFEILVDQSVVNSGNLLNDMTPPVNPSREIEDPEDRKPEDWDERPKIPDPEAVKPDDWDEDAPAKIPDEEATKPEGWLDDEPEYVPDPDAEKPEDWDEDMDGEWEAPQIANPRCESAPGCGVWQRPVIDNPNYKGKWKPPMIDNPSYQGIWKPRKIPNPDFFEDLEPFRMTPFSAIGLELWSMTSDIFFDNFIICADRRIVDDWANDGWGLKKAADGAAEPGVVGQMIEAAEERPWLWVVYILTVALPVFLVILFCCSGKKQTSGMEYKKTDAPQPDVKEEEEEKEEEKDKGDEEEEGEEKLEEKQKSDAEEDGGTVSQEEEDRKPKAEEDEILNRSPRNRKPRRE
UniProt P61081: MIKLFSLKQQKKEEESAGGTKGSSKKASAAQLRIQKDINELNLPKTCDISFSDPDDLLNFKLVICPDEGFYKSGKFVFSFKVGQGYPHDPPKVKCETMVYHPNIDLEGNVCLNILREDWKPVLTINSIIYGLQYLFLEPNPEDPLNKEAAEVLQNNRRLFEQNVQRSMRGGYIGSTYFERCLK

B1: PYGL (protein, UniProt P06737 1-847)
chain: MAKPLTDQEKRRQISIRGIVGVENVAELKKSFNRHLHFTLVKDRNVATTRDYYFALAHTVRDHLVGRWIRTQQHYYDKCPKRVYYLSLEFYMGRTLQNTMINLGLQNACDEAIYQLGLDIEELEEIEEDAGLGNGGLGRLAACFLDSMATLGLAAYGYGIRYEYGIFNQKIRDGWQVEEADDWLRYGNPWEKSRPEFMLPVHFYGKVEHTNTGTKWIDTQVVLALPYDTPVPGYMNNTVNTMRLWSARAPNDFNLRDFNVGDYIQAVLDRNLAENISRVLYPNDNFFEGKELRLKQEYFVVAATLQDIIRRFKASKFGSTRGAGTVFDAFPDQVAIQLNDTHPALAIPELMRIFVDIEKLPWSKAWELTQKTFAYTNHTVLPEALERWPVDLVEKLLPRHLEIIYEINQKHLDRIVALFPKDVDRLRRMSLIEEEGSKRINMAHLCIVGSHAVNGVAKIHSDIVKTKVFKDFSELEPDKFQNKTNGITPRRWLLLCNPGLAELIAEKIGEDYVKDLSQLTKLHSFLGDDVFLRELAKVKQENKLKFSQFLETEYKVKINPSSMFDVQVKRIHEYKRQLLNCLHVITMYNRIKKDPKKLFVPRTVIIGGKAAPGYHMAKMIIKLITSVADVVNNDPMVGSKLKVIFLENYRVSLAEKVIPATDLSEQISTAGTEASGTGNMKFMLNGALTIGTMDGANVEMAEEAGEENLFIFGMRIDDVAALDKKGYEAKEYYEALPELKLVIDQIDNGFFSPKQPDLFKDIINMLFYHDRFKVFADYEAYVKCQDKVSQLYMNPKAWNTMVLKNIAASGKFSSDRTIKEYAQNIWNVEPSDLKISLSNESNKVNGN
B2: HSD17B4 (protein, UniProt P51659 1-736)
chain: MGSPLRFDGRVVLVTGAGAGLGRAYALAFAERGALVVVNDLGGDFKGVGKGSLAADKVVEEIRRRGGKAVANYDSVEEGEKVVKTALDAFGRIDVVVNNAGILRDRSFARISDEDWDIIHRVHLRGSFQVTRAAWEHMKKQKYGRIIMTSSASGIYGNFGQANYSAAKLGLLGLANSLAIEGRKSNIHCNTIAPNAGSRMTQTVMPEDLVEALKPEYVAPLVLWLCHESCEENGGLFEVGAGWIGKLRWERTLGAIVRQKNHPMTPEAVKANWKKICDFENASKPQSIQESTGSIIEVLSKIDSEGGVSANHTSRATSTATSGFAGAIGQKLPPFSYAYTELEAIMYALGVGASIKDPKDLKFIYEGSSDFSCLPTFGVIIGQKSMMGGGLAEIPGLSINFAKVLHGEQYLELYKPLPRAGKLKCEAVVADVLDKGSGVVIIMDVYSYSEKELICHNQFSLFLVGSGGFGGKRTSDKVKVAVAIPNRPPDAVLTDTTSLNQAALYRLSGDWNPLHIDPNFASLAGFDKPILHGLCTFGFSARRVLQQFADNDVSRFKAIKARFAKPVYPGQTLQTEMWKEGNRIHFQTKVQETGDIVISNAYVDLAPTSGTSAKTPSEGGKLQSTFVFEEIGRRLKDIGPEVVKKVNAVFEWHITKGGNIGAKWTIDLKSGSGKVYQGPAKGAADTTIILSDEDFMEVVLGKLDPQKAFFSGRLKARGNIMLSQKLQMILKDYAKL
B3: TBCA (protein, UniProt O75347 1-108)
chain: MADPRVRQIKIKTGVVKRLVKEKVMYEKEAKQQEEKIEKMRAEDGENYDIKKQAEILQESRMMIPDCQRRLEAAYLDLQRILENEKDLEEAEEYKEARLVLDSVKLEA
B4: electron-transfer-flavoprotein (protein, UniProt P38117 1-255)
chain: MAELRVLVAVKRVIDYAVKIRVKPDRTGVVTDGVKHSMNPFCEIAVEEAVRLKEKKLVKEVIAVSCGPAQCQETIRTALAMGADRGIHVEVPPAEAERLGPLQVARVLAKLAEKEKVDLVLLGKQAIDDDCNQTGQMTAGFLDWPQGTFASQVTLEGDKLKVEREIDGGLETLRLKLPAVVTADLRLNEPRYATLPNIMKAKKKKIEVIKPGDLGVDLTSKLSVISVEDPPQRTAGVKVETTEDLVAKLKEIGRI
B5: phosphofructokinase (protein, UniProt P17858 1-780)
chain: MAAVDLEKLRASGAGKAIGVLTSGGDAQGMNAAVRAVTRMGIYVGAKVFLIYEGYEGLVEGGENIKQANWLSVSNIIQLGGTIIGSARCKAFTTREGRRAAAYNLVQHGITNLCVIGGDGSLTGANIFRSEWGSLLEELVAEGKISETTARTYSHLNIAGLVGSIDNDFCGTDMTIGTDSALHRIMEVIDAITTTAQSHQRTFVLEVMGRHCGYLALVSALASGADWLFIPEAPPEDGWENFMCERLGETRSRGSRLNIIIIAEGAIDRNGKPISSSYVKDLVVQRLGFDTRVTVLGHVQRGGTPSAFDRILSSKMGMEAVMALLEATPDTPACVVTLSGNQSVRLPLMECVQMTKEVQKAMDDKRFDEATQLRGGSFENNWNIYKLLAHQKPPKEKSNFSLAILNVGAPAAGMNAAVRSAVRTGISHGHTVYVVHDGFEGLAKGQVQEVGWHDVAGWLGRGGSMLGTKRTLPKGQLESIVENIRIYGIHALLVVGGFEAYEGVLQLVEARGRYEELCIVMCVIPATISNNVPGTDFSLGSDTAVNAAMESCDRIKQSASGTKRRVFIVETMGGYCGYLATVTGIAVGADAAYVFEDPFNIHDLKVNVEHMTEKMKTDIQRGLVLRNEKCHDYYTTEFLYNLYSSEGKGVFDCRTNVLGHLQQGGAPTPFDRNYGTKLGVKAMLWLSEKLREVYRKGRVFANAPDSACVIGLKKKAVAFSPVTELKKDTDFEHRMPREQWWLSLRLMLKMLAQYRISMAAYVSGELEHVTRRTLSMDKGF
B6: PGD (protein, UniProt P52209 1-483)
chain: MAQADIALIGLAVMGQNLILNMNDHGFVVCAFNRTVSKVDDFLANEAKGTKVVGAQSLKEMVSKLKKPRRIILLVKAGQAVDDFIEKLVPLLDTGDIIIDGGNSEYRDTTRRCRDLKAKGILFVGSGVSGGEEGARYGPSLMPGGNKEAWPHIKTIFQGIAAKVGTGEPCCDWVGDEGAGHFVKMVHNGIEYGDMQLICEAYHLMKDVLGMAQDEMAQAFEDWNKTELDSFLIEITANILKFQDTDGKHLLPKIRDSAGQKGTGKWTAISALEYGVPVTLIGEAVFARCLSSLKDERIQASKKLKGPQKFQFDGDKKSFLEDIRKALYASKIISYAQGFMLLRQAATEFGWTLNYGGIALMWRGGCIIRSVFLGKIKDAFDRNPELQNLLLDDFFKSAVENCQDSWRRAVSTGVQAGIPMPCFTTALSFYDGYRHEMLPASLIQAQRDYFGAHTYELLAKPGQFIHTNWTGHGGTVSSSSYNA
B7: ERP44 (protein, UniProt Q9BS26 30-406)
chain: EITSLDTENIDEILNNADVALVNFYADWCRFSQMLHPIFEEASDVIKEEFPNENQVVFARVDCDQHSDIAQRYRISKYPTLKLFRNGMMMKREYRGQRSVKALADYIRQQKSDPIQEIRDLAEITTLDRSKRNIIGYFEQKDSDNYRVFERVANILHDDCAFLSAFGDVSKPERYSGDNIIYKPPGHSAPDMVYLGAMTNFDVTYNWIQDKCVPLVREITFENGEELTEEGLPFLILFHMKEDTESLEIFQNEVARQLISEKGTINFLHADCDKFRHPLLHIQKTPADCPVIAIDSFRHMYVFGDFKDVLIPGKLKQFVFDLHSGKLHREFHHGPDPTDTAPGEQAQDVASSPPESSFQKLAPSEYRYTLLRDRDEL

Biological target: STAT1-Bio (signal transducers and activators of transcription 1 with a carboxy-terminal biotinylation tag), without activation (human) (UniProt P42224)
Assay: affinity purification with mass spectrometry; streptavidin bead pull-down of in situ biotinylated STAT1-Bio from HEK 293T whole cell extracts (modified RIPA buffer: 50 mM Tris-HCl pH 7.8, 150 mM NaCl, 1% NP-40, 0.25% sodium deoxycholate, 1 mM EDTA), 1.5 h at 4°C, 3 washes; triple SILAC against GFP-Bio control; cells treated with erythropoietin or left untreated; hits with log2 FC > 1 and p < 0.005

Molecule | binding
GLO1 (from UniProt Q04760 1-184) | binds
CANX (from UniProt P27824 21-592) | binds
ubiquitin-conjugating enzyme E2M (from UniProt P61081 1-183) | binds
B1 | binds
B2 | binds
B3 | binds
B4 | binds
B5 | binds
B6 | binds
B7 | binds
